Reference: the supplement of paper PMC6078165

Test system: MDAMB231
Experiment: relative JC-1 red fluorescence (viability) vs pre-drug, coculture with fibroblast (fraction); higher = more viable cancer cells
Procedure: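 JC-1 labelled TNBC cells cocultured 1:1 (1,500 cells each) with CellTrace Violet stained primary or stromal fibroblasts in 384-well plates in FluoroBrite medium, treated with one of 42 anticancer drugs at 0.1, 1, 10 or 100 uM. JC-1 red fluorescence (mitochondrial integrity in cancer cells only) was read by plate reader every 8 h for 72 h. Values are normalised to each well's pre-drug value. The stock of one drug was tenfold lower, so its dose labels may be too high.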

CCN(CC)CCNC(=O)c1c(C)[nH]c(/C=C2\C(=O)Nc3ccc(F)cc32)c1C [Sunitinib]
relative JC-1 red fluorescence
Conditions	8 h	16 h	24 h	32 h	40 h	48 h	56 h	64 h	72 h
0.1 µM, coculture fibroblast: C12385	0.736	0.70102	0.667	0.623	0.5594	0.541	0.503	0.51	0.491
0.1 µM, coculture fibroblast: H6013	0.865	0.818	0.794	0.79	0.762	0.752	0.743	0.714	0.682
0.1 µM, coculture fibroblast: H6019	0.768	0.721	0.696	0.644	0.606	0.601	0.564	0.549	0.508
0.1 µM, coculture fibroblast: H6076	0.854	0.803	0.761	0.751	0.716	0.681	0.657	0.6425	0.637
0.1 µM, coculture fibroblast: H6231	0.898	0.808	0.747	0.696	0.65	0.614	0.58	0.56	0.541
0.1 µM, coculture fibroblast: HADF	0.842	0.816	0.785	0.756	0.735	0.71	0.698	0.693	0.653
0.1 µM, coculture fibroblast: HCFa	0.875	0.833	0.799	0.757	0.715	0.6692	0.6406	0.6147	0.58
0.1 µM, coculture fibroblast: HCPF	0.903	0.813	0.759	0.747	0.699	0.661	0.632	0.608	0.599
0.1 µM, coculture fibroblast: HHSteC	0.906	0.876	0.85	0.804	0.78	0.755	0.723	0.695	0.65
0.1 µM, coculture fibroblast: HMF	0.854	0.7965	0.76	0.731	0.699	0.662	0.624	0.614	0.598
0.1 µM, coculture fibroblast: HPFa	0.928	0.882	0.847	0.7948	0.775	0.731	0.68	0.647	0.6
0.1 µM, coculture fibroblast: HUF	0.856	0.772	0.788	0.7	0.646	0.622	0.577	0.5703	0.5484
0.1 µM, coculture fibroblast: Hs5	0.834	0.783	0.751	0.716	0.676	0.628	0.6	0.575	0.546
0.1 µM, coculture fibroblast: Hs27A	0.874	0.831	0.7992	0.776	0.74	0.6923	0.682	0.662	0.614
0.1 µM, coculture fibroblast: Hs343T	0.8562	0.7589	0.692	0.665	0.622	0.589	0.545	0.532	0.518
0.1 µM, coculture fibroblast: WS1	0.7531	0.712	0.658	0.619	0.578	0.558	0.518	0.508	0.4874
1 µM, coculture fibroblast: C12385	0.735	0.728	0.708	0.687	0.615	0.599	0.569	0.579	0.56
1 µM, coculture fibroblast: H6013	0.884	0.8508	0.8227	0.816	0.7883	0.757	0.754	0.735	0.69
1 µM, coculture fibroblast: H6019	0.788	0.731	0.7341	0.685	0.644	0.6276	0.5939	0.582	0.541
1 µM, coculture fibroblast: H6076	0.871	0.844	0.842	0.834	0.806	0.774	0.76026	0.7355	0.7359
1 µM, coculture fibroblast: H6231	0.9234	0.8473	0.817	0.774	0.724	0.694	0.659	0.643	0.616
1 µM, coculture fibroblast: HADF	0.872	0.8429	0.817	0.7992	0.783	0.755	0.757	0.748	0.713
1 µM, coculture fibroblast: HCFa	0.901	0.837	0.815	0.8	0.77	0.738	0.721	0.7	0.663
1 µM, coculture fibroblast: HCPF	0.8561	0.8042	0.7715	0.7593	0.7121	0.6923	0.6592	0.6349	0.6178
1 µM, coculture fibroblast: HHSteC	0.9	0.88	0.857	0.83	0.81	0.783	0.754	0.738	0.704
1 µM, coculture fibroblast: HMF	0.906	0.908	0.781	0.792	0.728	0.768	0.73	0.748	0.672
1 µM, coculture fibroblast: HPFa	0.845	0.94	0.913	0.876	0.869	0.845	0.8	0.792	0.752
1 µM, coculture fibroblast: HUF	0.848	0.776	0.803	0.722	0.679	0.67	0.632	0.621	0.611
1 µM, coculture fibroblast: Hs5	0.8961	0.865	0.842	0.816	0.782	0.743	0.722	0.688	0.662
1 µM, coculture fibroblast: Hs27A	0.914	0.866	0.843	0.82	0.785	0.716	0.729	0.707	0.66
1 µM, coculture fibroblast: Hs343T	0.905	0.85	0.822	0.782	0.738	0.692	0.644	0.624	0.599
1 µM, coculture fibroblast: WS1	0.731	0.712	0.661	0.655	0.613	0.595	0.559	0.555	0.537
10 µM, coculture fibroblast: C12385	0.789	0.829	0.725	0.793	0.759	0.753	0.734	0.737	0.731
10 µM, coculture fibroblast: H6013	0.925	0.881	0.847	0.772	0.709	0.644	0.581	0.492	0.436
10 µM, coculture fibroblast: H6019	0.829	0.82	0.7744	0.821	0.739	0.656	0.562	0.488	0.441
10 µM, coculture fibroblast: H6076	0.929	0.955	0.886	0.8399	0.754	0.653	0.574	0.524	0.481
10 µM, coculture fibroblast: H6231	0.9803	0.9304	0.904	0.8375	0.7713	0.68	0.555	0.478	0.386
10 µM, coculture fibroblast: HADF	0.868	0.872	0.853	0.789	0.72	0.636	0.604	0.531	0.435
10 µM, coculture fibroblast: HCFa	0.945	0.94224	0.9295	0.932	0.911	0.865	0.885	0.866	0.85
10 µM, coculture fibroblast: HCPF	0.837	0.9879	0.933	0.88	0.884	0.776	0.654	0.57	0.485
10 µM, coculture fibroblast: HHSteC	0.92359	0.9244	0.889	0.857	0.78	0.707	0.656	0.598	0.536
10 µM, coculture fibroblast: HMF	0.928	0.89	0.86	0.816	0.751	0.687	0.585	0.53	0.449
10 µM, coculture fibroblast: HPFa	0.947	0.963	0.9352	0.912	0.913	0.875	0.863	0.851	0.832
10 µM, coculture fibroblast: HUF	0.899	0.845	0.834	0.796	0.771	0.778	0.75	0.746	0.726
10 µM, coculture fibroblast: Hs5	0.918	0.871	0.867	0.821	0.932	0.879	0.859	0.795	0.749
10 µM, coculture fibroblast: Hs27A	0.9445	0.929	0.91	0.904	0.874	0.78	0.826	0.797	0.76
10 µM, coculture fibroblast: Hs343T	0.926	0.897	0.873	0.852	0.765	0.674	0.549	0.496	0.402
10 µM, coculture fibroblast: WS1	0.759	0.725	0.668	0.659	0.609	0.576	0.521	0.524	0.497
100 µM, coculture fibroblast: C12385	0.356	0.156	0.179	0.126	0.101	0.0919	0.072	0.0737	0.0694
100 µM, coculture fibroblast: H6013	0.381	0.249	0.227	0.213	0.183	0.187	0.163	0.141	0.107
100 µM, coculture fibroblast: H6019	0.256	0.147	0.174	0.133	0.119	0.116	0.105	0.0963	0.0964
100 µM, coculture fibroblast: H6076	0.483	0.375	0.372	0.395	0.369	0.353	0.339	0.324	0.304
100 µM, coculture fibroblast: H6231	0.585	0.453	0.416	0.459	0.451	0.502	0.508	0.529	0.537
100 µM, coculture fibroblast: HADF	0.461	0.294	0.27	0.239	0.219	0.226	0.204	0.181	0.145
100 µM, coculture fibroblast: HCFa	0.579	0.298	0.262	0.239	0.22	0.221	0.21	0.191	0.164
100 µM, coculture fibroblast: HCPF	0.545	0.359	0.318	0.329	0.288	0.273	0.246	0.231	0.213
100 µM, coculture fibroblast: HHSteC	0.449	0.307	0.277	0.25	0.23	0.234	0.204	0.191	0.158
100 µM, coculture fibroblast: HMF	0.514	0.358	0.329	0.324	0.288	0.246	0.229	0.211	0.198
100 µM, coculture fibroblast: HPFa	0.805	0.375	0.304	0.262	0.259	0.254	0.222	0.208	0.183
100 µM, coculture fibroblast: HUF	0.5234	0.284	0.297	0.242	0.205	0.201	0.166	0.156	0.14
100 µM, coculture fibroblast: Hs5	0.417	0.373	0.369	0.377	0.361	0.347	0.336	0.319	0.311
100 µM, coculture fibroblast: Hs27A	0.494	0.398	0.447	0.499	0.514	0.523	0.594	0.619	0.64
100 µM, coculture fibroblast: Hs343T	0.575	0.401	0.383	0.403	0.378	0.351	0.347	0.323	0.283
100 µM, coculture fibroblast: WS1	0.246	0.185	0.21	0.192	0.199	0.218	0.21	0.219	0.221

Values are relative to the signal before dosing, not to a vehicle control; the signal also falls without drug.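 Labels refer to human fibroblasts, largely primary: uterine (C12385, HUF), lung (H6013), bone (Hs27A), adrenal (HADF), skin (WS1), plus mammary HMF and breast cancer-associated Hs343T. Cancer lines are basal-like or mesenchymal-like triple-negative breast cancer. The paper counts as hits responses shifting over 3x the replicate standard deviation. The tissue of the other fibroblasts is not given here.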
